In the supplement of paper PMC10735217:
Structures can show the parent of a compound that is named as a salt. This is one part of the list. Single values are uncertain here, since repeats match poorly.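 In a drug-repurposing library screen, luminescence reads luciferase driven by eight TEAD-binding elements, stably integrated into human kidney-derived cells. Compounds scoring over five robust Z scores above the plate mean are called hits.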

Tested on: HEK293A TEAD-LUC reporter
Test: TEAD-luciferase reporter activity (YAP activation), robust Z score vs plate; higher = stronger YAP/TEAD activation
Details: 24 h

SMILES	TEAD-luciferase reporter activity (compound concentration: 200 nM)	TEAD-luciferase reporter activity (compound concentration: 2 uM)	TEAD-luciferase reporter activity (compound concentration: 10 uM)
O=P(O)(O)C(O)(CCN1CCCC1)P(=O)(O)O	inactive: -0.505	inactive: -1.14	inactive: -0.208
CCN[C@H]1CN(CCOC)S(=O)(=O)c2sc(S(N)(=O)=O)cc21	inactive: -0.14	inactive: -0.442	inactive: -2.06
CC(=O)c1ccc(C)cc1NC(C(N)=O)c1c(Cl)cccc1Cl (configuration not stated) [Loviride]	inactive: -0.938	inactive: -0.732	inactive: 3.4
CCc1nc(C(N)=O)c(Nc2ccc(N3CCC(N4CCN(C)CC4)CC3)c(OC)c2)nc1NC1CCOCC1 [Gilteritinib]	inactive: -0.886	inactive: -0.00382	inactive: -1.32
C=CC(=O)Nc1cccc(Nc2nc(Nc3ccc(N4CCN(C(C)=O)CC4)cc3OC)ncc2C(F)(F)F)c1 [Rociletinib hydrobromide]	inactive: -0.499	inactive: -3.03	inactive: 2.43
CN(C)CCn1c(=O)c2cccc3c4c5c(ccc4n(c1=O)c23)C(=O)CCC5	inactive: 0.13	inactive: 1.67	inactive: 2.02
COC(=O)c1ccccc1C(=O)c1ccc(OCCN2CCCCC2)cc1	inactive: 0.413	inactive: 1.09	inactive: -0.156
Cc1noc(-c2ccc(-c3ccc(CC(=O)O)cc3)cc2)c1NC(=O)O[C@H](C)c1ccccc1	inactive: -2.48	inactive: -2.45	inactive: 1.02
CCCCCOc1ccccc1/C(=C\SC)n1ccnc1	inactive: -0.162	inactive: 0.862	inactive: 1.28
CO/N=C/C1=CCCN(C)C1 [Milameline hydrochloride]	inactive: -1.55	inactive: 2.05	inactive: -0.7
CCc1cc(Oc2cccc(N(Cc3cccc(OC(F)(F)C(F)F)c3)C[C@@H](O)C(F)(F)F)c2)ccc1Cl	inactive: -1.03	inactive: 0.0522	inactive: 0.919
CCN1CCN(C(c2cccs2)c2ccc3cccnc3c2O)CC1 (configuration not stated)	inactive: 2.08	inactive: 1.64	inactive: -0.949
CC(=O)c1c2c(c(C)[nH]c1=O)CCCC2	inactive: -1.06	inactive: -1.19	inactive: -0.797
CN1CCN(C2CCC(n3cc(-c4ccc(NS(=O)(=O)c5cccc(Cl)c5Cl)c(F)c4)c4c(N)ncnc43)CC2)CC1 (configuration not stated)	inactive: 0.649	inactive: -2.21	inactive: -0.43
COc1ccc(C#Cc2ccccc2)c(CCC(C)N(C)CCc2ccc(OC)c(OC)c2)c1 (configuration not stated)	inactive: -0.684	inactive: -1.84	inactive: 2.63
O=C1NC(=O)C2C3C=CC(C12)C1C2C(=O)NC(=O)C2C31 (configuration not stated) [mitindomide]	inactive: -2.19	inactive: -1.34	inactive: -1.59
CCNC(=O)[C@H]1O[C@@H](n2cnc3c(NCC(c4ccccc4)c4ccccc4)nc(C(=O)NCCNC(=O)NC4CCN(c5ccccn5)CC4)nc32)[C@H](O)[C@@H]1O	inactive: -0.701	inactive: -2	inactive: -0.171
CCOc1c(N)c2c(c(OCC)c1OCC)C(C1c3c(cc4c(c3OC)OCO4)CCN1C)OC2=O (configuration not stated) [Tritoqualine]	inactive: 0.248	inactive: -0.107	inactive: 0.934
CN(C)CC/C=C1/c2ccccc2COc2ccc(CC(=O)O)cc21 [olopatadine (high-dose)]		inactive: -0.133	
CN(C)CC/C=C1/c2ccccc2COc2ccc(CC(=O)O)cc21	inactive: -1.03		inactive: -0.204
O=C(/C=C/c1c(-c2ccccc2)nn2ccccc12)N1CCCC[C@@H]1CCO	inactive: -0.138	inactive: -1.04	inactive: 2.88
CN1CCN(C(c2ccccc2)c2ccccc2)CC1 [Cyclizine hydrochloride]	inactive: 0.709	inactive: -0.181	inactive: 3.16
CN1CCC(NC(=O)c2cccn3ccnc23)CC1	inactive: -0.0914	inactive: -0.958	inactive: 3.03
CC(OC(=O)c1c[nH]c2ccccc12)C1CCCCN1C (configuration not stated)	inactive: -1.1	inactive: 0.233	inactive: 1.54
N#Cc1ccc2[nH]cc(CCCCN3CCN(c4ccc5oc(C(N)=O)cc5c4)CC3)c2c1 [Vilazodone hydrochloride]	inactive: -0.188	inactive: -1.21	inactive: 1.19

Single records, from the list above.
COC(=O)c1ccccc1C(=O)c1ccc(OCCN2CCCCC2)cc1 as listed: TEAD-luciferase reporter activity (compound concentration: 200 nM): inactive: 0.413; TEAD-luciferase reporter activity (compound concentration: 2 uM): inactive: 1.09; TEAD-luciferase reporter activity (compound concentration: 10 uM): inactive: -0.156
CCc1cc(Oc2cccc(N(Cc3cccc(OC(F)(F)C(F)F)c3)C[C@@H](O)C(F)(F)F)c2)ccc1Cl as listed: TEAD-luciferase reporter activity (compound concentration: 200 nM): inactive: -1.03; TEAD-luciferase reporter activity (compound concentration: 2 uM): inactive: 0.0522; TEAD-luciferase reporter activity (compound concentration: 10 uM): inactive: 0.919
